± gives the standard deviation of the averaged measurements. The list shows a part of the results.
Compound: Nc1nc2c(ncn2[C@@H]2O[C@H](COP(=O)(O)OP(=O)(O)OP(=O)(O)O)[C@@H](O)[C@H]2O)c(=O)[nH]1 [guanosine triphosphate]
Experiment: NP40-soluble protein abundance relative to vehicle (solubility fold change) (ratio); higher = more soluble protein in presence of GTP
In short: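 Each value is a fold change relative to the detergent-processed vehicle, calculated per replicate from vsn-normalised intensities. Jurkat crude lysate received eight concentrations (0.1 to 10 mM) for 10 min at room temperature and 3 min at 37 °C, then was solubilised in 0.8% NP40 with benzonase (60 min, 4 °C). The ultracentrifuged supernatant was TMT-labelled and run by LC-MS/MS in three independent experiments.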

Amino acid sequences for entries named in this document (tags omitted). A change or cut given only in a name is not applied to a line headed by its entry.
UniProt Q96HC4: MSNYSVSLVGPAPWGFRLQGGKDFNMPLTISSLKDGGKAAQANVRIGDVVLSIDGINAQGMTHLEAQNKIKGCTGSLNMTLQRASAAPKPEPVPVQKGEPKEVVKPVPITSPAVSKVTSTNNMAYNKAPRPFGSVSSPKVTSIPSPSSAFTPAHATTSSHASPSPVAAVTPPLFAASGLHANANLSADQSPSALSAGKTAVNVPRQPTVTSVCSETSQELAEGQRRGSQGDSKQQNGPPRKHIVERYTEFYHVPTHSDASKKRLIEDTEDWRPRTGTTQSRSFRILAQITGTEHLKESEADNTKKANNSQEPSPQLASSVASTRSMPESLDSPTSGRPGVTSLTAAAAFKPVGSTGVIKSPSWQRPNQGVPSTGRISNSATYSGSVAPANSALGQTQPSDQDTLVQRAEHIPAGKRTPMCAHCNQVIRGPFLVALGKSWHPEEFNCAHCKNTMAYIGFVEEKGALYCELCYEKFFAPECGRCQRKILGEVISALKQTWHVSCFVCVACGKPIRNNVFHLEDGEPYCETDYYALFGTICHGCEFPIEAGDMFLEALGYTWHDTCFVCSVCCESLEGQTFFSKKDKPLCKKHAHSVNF
UniProt Q96GC9: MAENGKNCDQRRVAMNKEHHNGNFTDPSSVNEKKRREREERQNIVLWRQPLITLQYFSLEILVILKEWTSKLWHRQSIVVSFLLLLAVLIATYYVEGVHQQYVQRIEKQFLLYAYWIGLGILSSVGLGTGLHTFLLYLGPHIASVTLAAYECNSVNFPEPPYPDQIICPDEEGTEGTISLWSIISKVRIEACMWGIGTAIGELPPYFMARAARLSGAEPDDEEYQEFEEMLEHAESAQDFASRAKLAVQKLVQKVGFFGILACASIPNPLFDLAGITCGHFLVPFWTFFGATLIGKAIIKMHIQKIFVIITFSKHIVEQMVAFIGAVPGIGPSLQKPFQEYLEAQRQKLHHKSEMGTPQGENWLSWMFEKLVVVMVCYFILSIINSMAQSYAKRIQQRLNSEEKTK
UniProt Q8WUX2: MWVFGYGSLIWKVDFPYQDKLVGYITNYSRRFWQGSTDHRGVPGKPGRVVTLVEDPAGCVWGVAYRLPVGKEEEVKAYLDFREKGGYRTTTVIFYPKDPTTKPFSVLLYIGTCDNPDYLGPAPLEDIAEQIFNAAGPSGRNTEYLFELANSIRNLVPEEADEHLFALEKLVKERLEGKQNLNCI
UniProt Q969G6: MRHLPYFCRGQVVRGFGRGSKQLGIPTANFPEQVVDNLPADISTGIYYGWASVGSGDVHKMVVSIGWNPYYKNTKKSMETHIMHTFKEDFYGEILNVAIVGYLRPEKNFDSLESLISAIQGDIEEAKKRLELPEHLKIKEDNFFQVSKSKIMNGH
UniProt Q96IJ6: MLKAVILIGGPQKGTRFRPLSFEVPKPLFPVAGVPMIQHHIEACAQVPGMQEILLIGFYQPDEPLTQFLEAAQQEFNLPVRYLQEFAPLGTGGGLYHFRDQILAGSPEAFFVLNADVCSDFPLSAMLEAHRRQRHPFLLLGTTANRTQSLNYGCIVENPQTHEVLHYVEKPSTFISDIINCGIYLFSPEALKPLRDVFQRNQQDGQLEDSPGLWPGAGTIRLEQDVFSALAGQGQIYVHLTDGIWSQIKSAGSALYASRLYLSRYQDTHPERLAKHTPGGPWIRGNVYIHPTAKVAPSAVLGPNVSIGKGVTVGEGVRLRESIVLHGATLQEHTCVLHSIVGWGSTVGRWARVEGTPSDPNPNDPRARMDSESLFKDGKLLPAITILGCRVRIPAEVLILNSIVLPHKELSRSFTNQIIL
UniProt Q92615, whole entry: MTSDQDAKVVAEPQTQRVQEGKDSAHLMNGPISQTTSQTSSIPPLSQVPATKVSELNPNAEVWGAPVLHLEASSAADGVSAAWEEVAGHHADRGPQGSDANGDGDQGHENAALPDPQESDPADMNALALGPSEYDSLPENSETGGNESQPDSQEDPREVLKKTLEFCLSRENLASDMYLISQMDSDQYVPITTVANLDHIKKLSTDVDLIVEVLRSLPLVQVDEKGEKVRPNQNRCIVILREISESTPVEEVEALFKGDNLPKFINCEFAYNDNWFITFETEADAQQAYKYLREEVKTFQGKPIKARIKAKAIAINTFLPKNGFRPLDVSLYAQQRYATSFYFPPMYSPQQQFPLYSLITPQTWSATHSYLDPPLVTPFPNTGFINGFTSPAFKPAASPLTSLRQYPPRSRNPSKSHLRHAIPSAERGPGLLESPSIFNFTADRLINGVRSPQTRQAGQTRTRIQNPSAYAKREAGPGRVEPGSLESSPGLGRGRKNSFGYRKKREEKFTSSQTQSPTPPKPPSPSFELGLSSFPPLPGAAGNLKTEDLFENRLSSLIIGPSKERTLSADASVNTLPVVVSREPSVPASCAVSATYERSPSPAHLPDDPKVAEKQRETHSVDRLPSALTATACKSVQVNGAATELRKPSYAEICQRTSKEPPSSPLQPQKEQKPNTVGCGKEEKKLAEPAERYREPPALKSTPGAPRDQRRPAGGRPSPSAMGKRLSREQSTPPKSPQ
UniProt Q96BY9: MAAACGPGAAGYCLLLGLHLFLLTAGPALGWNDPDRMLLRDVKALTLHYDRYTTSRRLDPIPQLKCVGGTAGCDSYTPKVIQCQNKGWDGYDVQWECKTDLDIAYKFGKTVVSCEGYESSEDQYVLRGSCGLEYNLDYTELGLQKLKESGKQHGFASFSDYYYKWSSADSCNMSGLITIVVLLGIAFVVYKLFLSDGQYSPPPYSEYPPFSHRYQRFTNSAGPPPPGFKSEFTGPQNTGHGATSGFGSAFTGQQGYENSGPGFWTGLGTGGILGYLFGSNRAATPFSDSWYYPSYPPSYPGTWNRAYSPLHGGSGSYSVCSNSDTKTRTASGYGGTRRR
UniProt Q96C86: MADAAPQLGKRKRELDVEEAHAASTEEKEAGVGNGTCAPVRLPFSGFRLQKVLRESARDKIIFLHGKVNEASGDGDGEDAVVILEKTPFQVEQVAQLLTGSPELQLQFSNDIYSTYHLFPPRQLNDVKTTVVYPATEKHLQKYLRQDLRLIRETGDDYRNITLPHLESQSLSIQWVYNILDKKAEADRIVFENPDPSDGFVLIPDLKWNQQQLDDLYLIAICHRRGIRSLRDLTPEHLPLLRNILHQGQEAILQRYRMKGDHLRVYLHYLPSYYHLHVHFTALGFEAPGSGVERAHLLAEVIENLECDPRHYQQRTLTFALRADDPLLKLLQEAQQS
UniProt Q96BW5: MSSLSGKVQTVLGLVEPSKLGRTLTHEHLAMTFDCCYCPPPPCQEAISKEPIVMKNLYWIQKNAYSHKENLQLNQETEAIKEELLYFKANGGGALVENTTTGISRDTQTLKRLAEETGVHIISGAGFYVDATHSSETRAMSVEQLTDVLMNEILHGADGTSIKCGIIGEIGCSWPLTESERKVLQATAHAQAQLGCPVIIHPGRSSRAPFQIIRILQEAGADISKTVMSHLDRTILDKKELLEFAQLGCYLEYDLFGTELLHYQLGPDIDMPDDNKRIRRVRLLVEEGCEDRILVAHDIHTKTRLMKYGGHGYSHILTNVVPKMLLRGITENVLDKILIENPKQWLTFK
UniProt Q96G74: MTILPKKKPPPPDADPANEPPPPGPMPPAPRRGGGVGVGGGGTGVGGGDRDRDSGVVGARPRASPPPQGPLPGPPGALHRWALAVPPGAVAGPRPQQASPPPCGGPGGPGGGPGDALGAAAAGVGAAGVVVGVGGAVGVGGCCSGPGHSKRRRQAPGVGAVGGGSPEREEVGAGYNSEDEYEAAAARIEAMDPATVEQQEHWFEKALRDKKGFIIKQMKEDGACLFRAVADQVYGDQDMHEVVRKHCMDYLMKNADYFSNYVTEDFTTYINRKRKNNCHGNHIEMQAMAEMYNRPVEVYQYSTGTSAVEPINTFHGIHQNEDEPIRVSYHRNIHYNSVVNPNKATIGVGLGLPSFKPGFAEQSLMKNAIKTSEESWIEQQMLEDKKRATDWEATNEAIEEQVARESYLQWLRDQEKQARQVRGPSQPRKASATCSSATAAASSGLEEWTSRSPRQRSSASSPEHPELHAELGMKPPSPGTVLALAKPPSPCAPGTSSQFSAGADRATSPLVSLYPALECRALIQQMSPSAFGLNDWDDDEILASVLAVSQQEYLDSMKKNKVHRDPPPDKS
UniProt Q96FJ2, whole entry: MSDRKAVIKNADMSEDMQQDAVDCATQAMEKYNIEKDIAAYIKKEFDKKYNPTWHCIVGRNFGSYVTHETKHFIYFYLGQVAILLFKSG
UniProt Q92688: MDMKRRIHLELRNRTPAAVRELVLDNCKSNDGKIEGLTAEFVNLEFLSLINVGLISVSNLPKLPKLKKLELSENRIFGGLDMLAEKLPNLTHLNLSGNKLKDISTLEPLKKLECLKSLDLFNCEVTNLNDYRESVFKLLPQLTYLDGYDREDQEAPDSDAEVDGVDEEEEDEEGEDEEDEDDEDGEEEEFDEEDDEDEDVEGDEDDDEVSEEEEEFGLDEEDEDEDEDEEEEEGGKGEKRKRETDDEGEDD
UniProt Q96EK6: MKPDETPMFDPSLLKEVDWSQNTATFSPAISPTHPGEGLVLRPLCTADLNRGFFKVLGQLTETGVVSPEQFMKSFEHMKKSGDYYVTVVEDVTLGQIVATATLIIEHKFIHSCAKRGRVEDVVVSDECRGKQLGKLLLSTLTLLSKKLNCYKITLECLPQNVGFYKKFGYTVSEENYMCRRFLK
UniProt Q92667: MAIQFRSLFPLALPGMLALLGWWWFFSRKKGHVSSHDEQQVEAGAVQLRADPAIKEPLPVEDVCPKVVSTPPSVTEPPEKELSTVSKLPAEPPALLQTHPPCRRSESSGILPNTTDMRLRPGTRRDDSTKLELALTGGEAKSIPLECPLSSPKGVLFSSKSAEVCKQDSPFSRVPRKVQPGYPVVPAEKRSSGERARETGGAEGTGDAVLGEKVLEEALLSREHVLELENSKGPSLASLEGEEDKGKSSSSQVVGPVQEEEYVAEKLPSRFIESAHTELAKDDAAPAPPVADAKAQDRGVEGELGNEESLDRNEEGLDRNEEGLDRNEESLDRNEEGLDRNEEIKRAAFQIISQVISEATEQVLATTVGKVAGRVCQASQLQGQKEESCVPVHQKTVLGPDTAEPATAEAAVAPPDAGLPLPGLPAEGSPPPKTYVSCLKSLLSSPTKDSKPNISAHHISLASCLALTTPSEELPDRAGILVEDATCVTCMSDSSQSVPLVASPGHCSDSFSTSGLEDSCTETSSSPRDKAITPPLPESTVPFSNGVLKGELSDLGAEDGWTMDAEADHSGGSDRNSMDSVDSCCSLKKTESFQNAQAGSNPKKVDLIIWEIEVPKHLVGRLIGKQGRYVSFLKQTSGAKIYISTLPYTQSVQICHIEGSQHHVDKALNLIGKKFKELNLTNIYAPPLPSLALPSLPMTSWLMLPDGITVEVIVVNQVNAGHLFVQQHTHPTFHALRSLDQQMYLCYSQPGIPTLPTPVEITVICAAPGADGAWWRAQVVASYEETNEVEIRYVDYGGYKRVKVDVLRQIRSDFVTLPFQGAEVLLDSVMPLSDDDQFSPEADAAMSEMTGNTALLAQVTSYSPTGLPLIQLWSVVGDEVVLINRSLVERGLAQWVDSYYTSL
UniProt Q96DT7: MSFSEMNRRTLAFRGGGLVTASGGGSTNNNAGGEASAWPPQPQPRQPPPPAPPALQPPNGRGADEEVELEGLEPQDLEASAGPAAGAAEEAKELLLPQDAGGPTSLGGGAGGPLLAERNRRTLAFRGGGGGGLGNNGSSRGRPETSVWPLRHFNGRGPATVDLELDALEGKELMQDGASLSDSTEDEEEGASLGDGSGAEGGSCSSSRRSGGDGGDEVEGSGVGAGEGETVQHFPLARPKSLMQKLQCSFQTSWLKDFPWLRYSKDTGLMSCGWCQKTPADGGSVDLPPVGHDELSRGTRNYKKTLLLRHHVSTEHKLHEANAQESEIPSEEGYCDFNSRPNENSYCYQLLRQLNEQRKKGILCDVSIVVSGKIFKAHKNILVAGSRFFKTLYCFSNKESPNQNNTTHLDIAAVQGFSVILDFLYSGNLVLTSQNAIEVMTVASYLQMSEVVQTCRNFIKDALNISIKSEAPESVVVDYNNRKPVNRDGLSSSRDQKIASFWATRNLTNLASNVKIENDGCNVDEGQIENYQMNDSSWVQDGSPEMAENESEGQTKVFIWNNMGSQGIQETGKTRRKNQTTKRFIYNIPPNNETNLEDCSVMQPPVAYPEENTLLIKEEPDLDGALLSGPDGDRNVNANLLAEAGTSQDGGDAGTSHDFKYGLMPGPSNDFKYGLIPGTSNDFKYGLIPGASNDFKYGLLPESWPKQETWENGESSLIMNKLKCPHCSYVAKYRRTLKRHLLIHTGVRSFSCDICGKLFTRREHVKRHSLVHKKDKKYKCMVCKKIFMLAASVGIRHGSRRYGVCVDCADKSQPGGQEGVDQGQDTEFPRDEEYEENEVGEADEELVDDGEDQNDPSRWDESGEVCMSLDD

Row | Target | NP40-soluble protein abundance (concentration: 0.1mM) | NP40-soluble protein abundance (concentration: 0.5mM) | NP40-soluble protein abundance (concentration: 1mM) | NP40-soluble protein abundance (concentration: 2mM) | NP40-soluble protein abundance (concentration: 4mM) | NP40-soluble protein abundance (concentration: 6mM) | NP40-soluble protein abundance (concentration: 8mM) | NP40-soluble protein abundance (concentration: 10mM)
1 | UniProt Q96EM0 | 0.976 ± 0.19 | 0.971 ± 0.15 | 0.869 ± 0.093 | 0.892 ± 0.11 | 1.02 ± 0.026 | 0.929 ± 0.095 | 0.85 ± 0.16 | 0.895 ± 0.085
2 | TBRG4 (UniProt Q969Z0) | 0.97 ± 0.033 | 0.994 ± 0.016 | 0.954 ± 0.041 | 0.945 ± 0.038 | 0.948 ± 0.049 | 0.915 ± 0.03 | 0.917 ± 0.045 | 0.918 ± 0.087
3 | PDLIM5 (UniProt Q96HC4) | 0.93 ± 0.015 | 0.941 ± 0.041 | 0.945 ± 0.034 | 0.905 ± 0.044 | 0.885 ± 0.057 | 0.899 ± 0.062 | 0.894 ± 0.029 | 0.897 ± 0.036
4 | UniProt Q96EA4 and related entries | 0.956 ± 0.024 | 0.972 ± 0.069 | 0.944 ± 0.067 | 1.03 ± 0.027 | 0.982 ± 0.016 | 0.98 ± 0.1 | 0.986 ± 0.065 | 0.995 ± 0.024
5 | UniProt Q96EY5 and related entries | 0.994 ± 0.021 | 1 ± 0.023 | 0.966 ± 0.03 | 0.993 ± 0.018 | 0.96 ± 0.035 | 0.948 ± 0.036 | 0.967 ± 0.036 | 0.97 ± 0.07
6 | UniProt Q96GN5 and related entries | 1.03 ± 0.018 | 1.05 ± 0.025 | 1.1 ± 0.014 | 1.186 ± 0.0088 | 1.37 ± 0.089 | 1.46 ± 0.15 | 1.5 ± 0.093 | 1.46 ± 0.046
7 | UniProt Q96GC9 | 1.01 ± 0.11 | 1 ± 0.073 | 0.787 ± 0.12 | 0.754 ± 0.13 | 0.757 ± 0.1 | 0.687 ± 0.082 | 0.829 ± 0.12 | 0.883 ± 0.077
8 | CHAC2 (UniProt Q8WUX2) | 0.895 ± 0.065 | 0.909 ± 0.043 | 0.855 ± 0.018 | 0.874 ± 0.0097 | 0.831 ± 0.041 | 0.819 ± 0.029 | 0.797 ± 0.072 | 0.808 ± 0.045
9 | RFK (UniProt Q969G6) | 0.9524 ± 0.0088 | 1 ± 0.013 | 0.974 ± 0.025 | 0.918 ± 0.042 | 0.866 ± 0.049 | 0.912 ± 0.071 | 0.873 ± 0.068 | 0.853 ± 0.042
10 | GMPPA (UniProt Q96IJ6) | 1.03 ± 0.028 | 1.04 ± 0.079 | 0.992 ± 0.041 | 0.967 ± 0.054 | 0.999 ± 0.048 | 0.972 ± 0.067 | 0.95 ± 0.03 | 0.937 ± 0.046
11 | UniProt Q93100 and related entries | 1.14 ± 0.1 | 1.16 ± 0.14 | 1.15 ± 0.14 | 1.17 ± 0.18 | 1.19 ± 0.2 | 1.16 ± 0.18 | 1.21 ± 0.17 | 1.07 ± 0.16
12 | UniProt Q92615 | 0.985 ± 0.041 | 1 ± 0.04 | 1.08 ± 0.061 | 1.15 ± 0.092 | 1.14 ± 0.076 | 1.19 ± 0.066 | 1.29 ± 0.057 | 1.34 ± 0.11
13 | UniProt Q96BY9 and related entries | 1.08 ± 0.15 | 1.08 ± 0.064 | 1.09 ± 0.15 | 1.1 ± 0.094 | 1.03 ± 0.11 | 1.01 ± 0.1 | 1.05 ± 0.19 | 1.07 ± 0.22
14 | TMEM263 (UniProt Q8WUH6) | 0.916 ± 0.011 | 0.868 ± 0.033 | 0.963 ± 0.037 | 0.913 ± 0.04 | 0.903 ± 0.092 | 0.882 ± 0.03 | 0.908 ± 0.041 | 0.916 ± 0.034
15 | DCPS (UniProt Q96C86) | 0.983 ± 0.019 | 1.01 ± 0.0029 | 0.922 ± 0.045 | 0.908 ± 0.046 | 0.878 ± 0.056 | 0.889 ± 0.063 | 0.868 ± 0.053 | 0.857 ± 0.076
16 | UniProt Q96BW5 and related entries | 1.01 ± 0.024 | 0.973 ± 0.039 | 0.933 ± 0.04 | 0.897 ± 0.027 | 0.899 ± 0.019 | 0.89 ± 0.051 | 0.89 ± 0.013 | 0.84 ± 0.027
17 | UniProt Q96G74 and related entries | 0.952 ± 0.073 | 0.968 ± 0.073 | 1.03 ± 0.065 | 0.998 ± 0.099 | 0.976 ± 0.088 | 0.985 ± 0.11 | 0.991 ± 0.043 | 0.975 ± 0.044
18 | UniProt Q92542 and related entries | 0.862 ± 0.074 | 0.836 ± 0.035 | 0.895 ± 0.078 | 0.891 ± 0.092 | 0.927 ± 0.08 | 0.872 ± 0.066 | 0.832 ± 0.073 | 0.901 ± 0.085
19 | UniProt Q92466 and related entries | 1.09 ± 0.068 | 1.11 ± 0.077 | 1.11 ± 0.052 | 1.17 ± 0.12 | 1.21 ± 0.13 | 1.17 ± 0.11 | 1.2 ± 0.15 | 1.17 ± 0.11
20 | GCC1 (UniProt Q96CN9) | 1.04 ± 0.083 | 0.994 ± 0.11 | 0.994 ± 0.093 | 0.974 ± 0.087 | 0.997 ± 0.074 | 1.03 ± 0.089 | 0.969 ± 0.083 | 1.03 ± 0.061
21 | UniProt Q8WVT3 | 1.05 ± 0.031 | 1.01 ± 0.022 | 1.02 ± 0.03 | 1 ± 0.029 | 0.998 ± 0.05 | 0.993 ± 0.019 | 1.006 ± 0.0081 | 0.985 ± 0.046
22 | UniProt Q96JJ7 | 1.03 ± 0.048 | 1.01 ± 0.036 | 0.961 ± 0.037 | 0.95 ± 0.035 | 0.925 ± 0.013 | 0.913 ± 0.0099 | 0.88 ± 0.038 | 0.901 ± 0.05
23 | UniProt Q96FJ2 | 0.875 ± 0.063 | 0.83 ± 0.033 | 1.07 ± 0.12 | 1.06 ± 0.081 | 1.18 ± 0.1 | 1.03 ± 0.11 | 1.05 ± 0.087 | 1.18 ± 0.17
24 | LEO1 (UniProt Q8WVC0) | 0.97 ± 0.092 | 0.98 ± 0.091 | 0.983 ± 0.09 | 0.952 ± 0.099 | 0.965 ± 0.098 | 0.934 ± 0.07 | 0.928 ± 0.1 | 0.846 ± 0.14
25 | UniProt Q92688 and related entries | 0.862 ± 0.035 | 0.816 ± 0.078 | 0.95 ± 0.052 | 0.857 ± 0.071 | 0.899 ± 0.08 | 0.881 ± 0.059 | 0.91 ± 0.09 | 0.916 ± 0.039
26 | UniProt Q96CV9 and related entries | 0.921 ± 0.055 | 0.93 ± 0.096 | 0.934 ± 0.036 | 0.896 ± 0.088 | 0.881 ± 0.12 | 0.907 ± 0.069 | 0.919 ± 0.08 | 0.928 ± 0.063
27 | GNPNAT1 (UniProt Q96EK6) | 1.03 ± 0.049 | 1.02 ± 0.027 | 0.976 ± 0.031 | 0.967 ± 0.018 | 0.947 ± 0.037 | 0.923 ± 0.056 | 0.908 ± 0.056 | 0.882 ± 0.045
28 | AKAP1 (UniProt Q92667) | 0.974 ± 0.062 | 0.973 ± 0.057 | 0.979 ± 0.053 | 0.95 ± 0.055 | 0.96 ± 0.053 | 0.958 ± 0.064 | 1 ± 0.069 | 1 ± 0.068
29 | BRI3BP (UniProt Q8WY22) | 0.974 ± 0.1 | 0.937 ± 0.079 | 0.94 ± 0.066 | 1.07 ± 0.088 | 1.03 ± 0.031 | 1.07 ± 0.062 | 0.927 ± 0.099 | 1.04 ± 0.03
30 | UniProt Q96DT7 and related entries | 0.904 ± 0.14 | 1 ± 0.11 | 1.02 ± 0.11 | 0.929 ± 0.18 | 0.917 ± 0.11 | 1.03 ± 0.12 | 1.1 ± 0.085 | 1.03 ± 0.13

Random excerpt: two entries already listed
Row | Target | NP40-soluble protein abundance (concentration: 0.1mM) | NP40-soluble protein abundance (concentration: 0.5mM) | NP40-soluble protein abundance (concentration: 1mM) | NP40-soluble protein abundance (concentration: 2mM) | NP40-soluble protein abundance (concentration: 4mM) | NP40-soluble protein abundance (concentration: 6mM) | NP40-soluble protein abundance (concentration: 8mM) | NP40-soluble protein abundance (concentration: 10mM)
4 | UniProt Q96EA4 and related entries | 0.956 ± 0.024 | 0.972 ± 0.069 | 0.944 ± 0.067 | 1.03 ± 0.027 | 0.982 ± 0.016 | 0.98 ± 0.1 | 0.986 ± 0.065 | 0.995 ± 0.024
12 | UniProt Q92615 | 0.985 ± 0.041 | 1 ± 0.04 | 1.08 ± 0.061 | 1.15 ± 0.092 | 1.14 ± 0.076 | 1.19 ± 0.066 | 1.29 ± 0.057 | 1.34 ± 0.11

Source: the supplement of paper PMC6411743
